In publication PMC9508853:
Results are given in words; binding and its absence hold for the method and conditions named.

What was measured:
[1] = target: T1, Cactin/Cay1 (S. pombe) (UniProt O14342); test: two-hybrid; yeast two-hybrid assays (Supplementary Figure S11B); bait and prey orientation and conditions not given
T1 sequence: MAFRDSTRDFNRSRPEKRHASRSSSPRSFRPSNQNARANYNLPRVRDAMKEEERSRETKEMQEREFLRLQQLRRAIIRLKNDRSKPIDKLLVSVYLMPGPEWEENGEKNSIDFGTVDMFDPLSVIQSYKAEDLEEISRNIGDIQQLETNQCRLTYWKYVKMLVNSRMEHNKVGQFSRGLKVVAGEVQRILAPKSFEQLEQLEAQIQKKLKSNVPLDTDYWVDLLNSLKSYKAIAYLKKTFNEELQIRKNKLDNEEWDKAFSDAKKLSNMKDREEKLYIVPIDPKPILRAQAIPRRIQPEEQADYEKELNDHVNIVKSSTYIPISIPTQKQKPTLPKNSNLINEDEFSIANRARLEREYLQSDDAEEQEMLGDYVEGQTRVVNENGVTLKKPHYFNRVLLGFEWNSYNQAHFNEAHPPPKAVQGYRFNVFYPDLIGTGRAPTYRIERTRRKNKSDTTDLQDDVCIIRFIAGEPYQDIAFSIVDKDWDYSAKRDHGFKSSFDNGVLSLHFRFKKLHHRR

[2] = target: T2, Tls1 (S. pombe) (UniProt Q10148); test: as above
T2 sequence: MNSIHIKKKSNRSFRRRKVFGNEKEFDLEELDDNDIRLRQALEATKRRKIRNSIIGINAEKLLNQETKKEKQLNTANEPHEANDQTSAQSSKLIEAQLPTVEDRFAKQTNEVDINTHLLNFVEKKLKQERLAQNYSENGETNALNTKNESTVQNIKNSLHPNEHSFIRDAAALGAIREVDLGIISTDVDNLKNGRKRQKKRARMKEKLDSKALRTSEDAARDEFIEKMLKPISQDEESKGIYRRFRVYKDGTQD

B1: Sde2 (protein, UniProt O14113 1-263)
chain: MECKTVFLNGDFLKNSVNVNLNRLATVETLLRHVLGDSYETVLERAYLTHQSRIVHPDIQLCKLEGKSTSAHLNLTLCTRVLGGKGGFGSQLRAAGGRMSKKRNEQENQDSCRDLDGNRLGTIRQAKELSEYLAKKPAETRAKKEAKKQKLNKVLAADSSSSRFDDHEYLEDLEQSVSNVRDAFQNSLLYRRGSTSASSFSSGSNGATTDEPAEKEARNNNSSINSWSRRMQASESSNEAEGEDSESQTSKSLYEWDDPLYGL
In the case of B1, the binding [1] is reported as “no binding” and the binding [2] is reported as “no binding”.

B2: Cactin/Cay1 (protein, UniProt O14342 1-517)
chain: MAFRDSTRDFNRSRPEKRHASRSSSPRSFRPSNQNARANYNLPRVRDAMKEEERSRETKEMQEREFLRLQQLRRAIIRLKNDRSKPIDKLLVSVYLMPGPEWEENGEKNSIDFGTVDMFDPLSVIQSYKAEDLEEISRNIGDIQQLETNQCRLTYWKYVKMLVNSRMEHNKVGQFSRGLKVVAGEVQRILAPKSFEQLEQLEAQIQKKLKSNVPLDTDYWVDLLNSLKSYKAIAYLKKTFNEELQIRKNKLDNEEWDKAFSDAKKLSNMKDREEKLYIVPIDPKPILRAQAIPRRIQPEEQADYEKELNDHVNIVKSSTYIPISIPTQKQKPTLPKNSNLINEDEFSIANRARLEREYLQSDDAEEQEMLGDYVEGQTRVVNENGVTLKKPHYFNRVLLGFEWNSYNQAHFNEAHPPPKAVQGYRFNVFYPDLIGTGRAPTYRIERTRRKNKSDTTDLQDDVCIIRFIAGEPYQDIAFSIVDKDWDYSAKRDHGFKSSFDNGVLSLHFRFKKLHHRR
With B2 the binding [2] was “no binding”.
